In patent US20130059773A1, “COMPOUNDS FOR THE TREATMENT OF INFLAMMATION AND NEUTROPENIA” (priority 2010, published 2013):
No constants are given. Whether binding was seen depends on the method and setting. Some results given as binding are weak or reduced against the parent protein; the word gives no strength.

Amino acid sequences for entries named in this document (tags omitted). A change or cut given only in a name is not applied to a line headed by its entry.
UniProt P12004: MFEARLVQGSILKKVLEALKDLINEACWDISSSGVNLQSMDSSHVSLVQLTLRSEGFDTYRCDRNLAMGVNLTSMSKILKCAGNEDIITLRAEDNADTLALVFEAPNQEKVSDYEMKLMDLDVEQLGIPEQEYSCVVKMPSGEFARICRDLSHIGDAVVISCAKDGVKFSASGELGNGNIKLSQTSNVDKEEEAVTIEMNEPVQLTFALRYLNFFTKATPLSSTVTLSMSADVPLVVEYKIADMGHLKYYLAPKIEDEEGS

Assays:
[1] = target: PCNA trimer (coordinates from X-ray structure PDB ID 1VYJ, used in molecular dynamics simulations) (human) (UniProt P12004); experiment: molecular dynamics simulation (in silico), PCNA trimer with two p21 peptides and one modified peptide
[2] = target: PCNA trimer (coordinates from X-ray structure PDB ID 1VYJ, used in molecular dynamics simulations) (human) (UniProt P12004); experiment: molecular dynamics simulation (in silico), PCNA trimer with p21 peptides

binding [1]: binds | binding [2]: binds
Binder: RQTSMTDFYHSKR [p21 peptide … used in the molecular dynamics simulations]
